Measurements from paper PMC12797000.
Results are given in words; binding and its absence hold for the method and conditions named. In cells and extracts the contact can be indirect. Some entries that bind do so weakly or less than the wild type. Tags and fused reporters may be left off the sequences shown.

By UniProt entry, the sequences of proteins in these tests, tags left out.
UniProt P23594: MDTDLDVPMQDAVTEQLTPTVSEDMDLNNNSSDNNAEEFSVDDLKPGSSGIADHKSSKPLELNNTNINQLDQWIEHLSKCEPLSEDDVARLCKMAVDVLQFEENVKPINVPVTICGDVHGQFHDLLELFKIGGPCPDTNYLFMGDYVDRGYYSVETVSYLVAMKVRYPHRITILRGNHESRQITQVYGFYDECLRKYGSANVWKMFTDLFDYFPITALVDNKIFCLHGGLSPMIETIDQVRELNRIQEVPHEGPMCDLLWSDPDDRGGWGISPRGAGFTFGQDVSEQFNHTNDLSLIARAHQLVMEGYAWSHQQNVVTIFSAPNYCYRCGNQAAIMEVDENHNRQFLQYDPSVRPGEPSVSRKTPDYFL

Molecular target: T1, Cdc55^reg tagged with protein A (Cdc55^reg-ProtA) (yeast (Saccharomyces cerevisiae, BY4741)) (UniProt Q00362)
T1 sequence: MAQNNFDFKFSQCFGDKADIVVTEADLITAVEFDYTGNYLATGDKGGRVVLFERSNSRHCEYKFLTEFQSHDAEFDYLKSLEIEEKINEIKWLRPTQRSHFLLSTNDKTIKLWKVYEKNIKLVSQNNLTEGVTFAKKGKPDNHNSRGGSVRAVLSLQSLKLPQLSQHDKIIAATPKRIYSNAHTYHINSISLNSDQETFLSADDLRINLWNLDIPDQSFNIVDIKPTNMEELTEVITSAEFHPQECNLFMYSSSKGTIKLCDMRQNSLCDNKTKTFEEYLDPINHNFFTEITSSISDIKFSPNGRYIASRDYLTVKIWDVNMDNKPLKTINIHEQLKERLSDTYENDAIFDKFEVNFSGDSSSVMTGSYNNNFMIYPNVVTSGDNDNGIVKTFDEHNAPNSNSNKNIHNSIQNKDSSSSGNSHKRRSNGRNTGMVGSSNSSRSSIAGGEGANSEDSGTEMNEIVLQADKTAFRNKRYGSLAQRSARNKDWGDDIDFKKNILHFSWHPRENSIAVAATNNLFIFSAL
Assay: pull-down; Cdc55^reg-ProtA from BY4741 yeast lysate on IgG beads, eluted by TEV protease; western blot; control: lysate with non-tagged Cdc55

binding: binds
Substance: Pph21^cat, catalytic subunit of PP2A (from UniProt P23594 1-369) (enzyme)
